Here are results for 71 sequences from the supplement of paper PMC10338343.

± gives the standard deviation. The list shows a part of the results, in another mix than the full data. The uncertainty is large for many entries.
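Note: 1 nM active piRISC with 0.1 nM target library at 33 °C single turnover.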

The experiment concerns MIWI (PIWIL1) piRISC loaded with piRNA #2 (30 nt). In words: pre-steady-state target cleavage rate (min^-1); MIWI and MILI are mouse PIWI proteins and EfPiwi is from a freshwater sponge; tags in brackets are library labels; higher = faster piRNA-guided slicing of the target. The conditions noted are these: guide: piRNA #2 5'p-UUAGGUAACCCAGUAGAUCCAGAGGAAUUC; auxiliary factor: 500 nM mouse GTSF1. The procedure, abridged:
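Three pooled Cleave-'n-Seq trials supplied the data, with k3 capped at 0.0001 min^-1. In each, […] transcribed, DNA-blocked target RNA library and 1 nM active affinity-purified piRISC with one synthetic guide reacted in HEPES–potassium acetate buffer at 33 °C for 0–8 or 0–960 min, with or without 500 nM GTSF1 partner protein. Uncleaved targets were sequenced and normalised to depth and to weakly complementary targets. A burst-and-steady-state fit provided the pre-steady-state cleavage rate.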
On to CUUAAGGAGACGAUCUACUGGGUUACGUUA, for which the “pre-steady-state target cleavage rate” value is 0.000883 ± 0.0065.

Take CAAUUGCUCUGGAUCUACUGGGUUACCAAA: the “pre-steady-state target cleavage rate” value came to 0.429 ± 0.071.

For CUUAAGGAGUGGAUCAACAGGGUUACCUAA, the “pre-steady-state target cleavage rate” value turned out to be 0.000885 ± 0.01.

Take CUUAAGGAGACCUAGUACUGGGUUACCCUAA: the “pre-steady-state target cleavage rate” value amounted to 0.000603 ± 0.0075.

CUUAACCUCUGGAUCUACUGUGGUUACCUAA: the “pre-steady-state target cleavage rate” value amounted to 0.00065 ± 0.013.

Regarding CUUAAGGAGACCUACUAGUCGGUUACCUAA, the “pre-steady-state target cleavage rate” value worked out at 0.000163 ± 0.019.

With CUUAAGGAGACGAUCUACUGGGUUGCCUAA, the “pre-steady-state target cleavage rate” value was determined as 0.0015 ± 0.0062.

As for CUUAAGGAGAGGUUCAACUGGGUUACCUAA, the “pre-steady-state target cleavage rate” value came out at 0.000995 ± 0.0079.

Regarding CUUAAGGAGAGGAGCUACUGGGUUACCUAA, the “pre-steady-state target cleavage rate” value came to 0.00478 ± 0.0053.

As for CUUAAGGACUGGAUCUUCUGCGUUACCUAA, the “pre-steady-state target cleavage rate” value turned out to be 0.0201 ± 0.02.

Turning to CUUAAGGAGACCUAGAUGAGCGGUUACCUAA, the “pre-steady-state target cleavage rate” value was found to be 0.000791 ± 0.012.

In the case of CAAUUCCUCUGGAUACUACUGGGUUACCUAA, the “pre-steady-state target cleavage rate” value came to 0.519 ± 0.068.

As to CAAAAGCUCUGGAUCUACUGGGUUACCUAA, the “pre-steady-state target cleavage rate” value worked out at 0.105 ± 0.025.

As for CUUAAGGACUGCGAUCUACUGGGUUACCUAA, the “pre-steady-state target cleavage rate” value is 0.0195 ± 0.026.

In the case of CUAUACCUCAGGAUCUACUGGGUUACCUAA, the “pre-steady-state target cleavage rate” value worked out at 0.465 ± 0.051.

For CUUAAGGAGACCGUCUACUGGGUUACCUAA, the “pre-steady-state target cleavage rate” value amounted to 0.00109 ± 0.0075.

On to CUUAAGGAGACCUAGAACUGGGUUAUCCUAA, for which the “pre-steady-state target cleavage rate” value turned out to be 0.000203 ± 0.031.

As to CUUAAGGAGACCUUCUACUGGGUUACCGUAA, the “pre-steady-state target cleavage rate” value worked out at 0.000925 ± 0.016.

For CUUAAGGAGUGGAUGUACUGGGUAACCUAA, the “pre-steady-state target cleavage rate” value amounted to 0.00324 ± 0.012.

With CUUAAGGAGAGGAUCUACUGGGUUAACCUAA, the “pre-steady-state target cleavage rate” value was found to be 0.00722 ± 0.0036.

Consider CUUAAGGAGACCUACAACUGGCUUACCUAA, for which the “pre-steady-state target cleavage rate” value was determined as 0.00022 ± 0.025.

On to CUUAAGGAGACCUACUACUGGGUUACCCAA, for which the “pre-steady-state target cleavage rate” value came to 0.00223 ± 0.0032.

With CUUAAGGACUGGAUCUACUGGGUUCCCUAA, the “pre-steady-state target cleavage rate” value amounted to 0.0186 ± 0.02.

In the case of CUUAAGGAGAGGUUCUUCUGGGUUACCUAA, the “pre-steady-state target cleavage rate” value was found to be 0.00145 ± 0.0049.

As to CUUAAGGAGUGGAUCAACUGGGUUAGCUAA, the “pre-steady-state target cleavage rate” value came out at 0.00179 ± 0.0083.

On to CUUAAGGAGUGGAUCUAGUGGGUAACCUAA, for which the “pre-steady-state target cleavage rate” value was found to be 0.000329 ± 0.017.

Consider CUUAAGGAGACGAUCUACUGCGAUACCUAA, for which the “pre-steady-state target cleavage rate” value amounted to 0.00217 ± 0.0039.

Consider CUUAAGGAGACGAUCUACUCCCUUACCUAA, for which the “pre-steady-state target cleavage rate” value was 0.000386 ± 0.013.

For CUAUUCCACUGGAUCUACUGCGUUACCUAA, the “pre-steady-state target cleavage rate” value was found to be 0.542 ± 0.056.

Consider CUUAAGGAGACCUAGAUCGUGGGUUACCUAA, for which the “pre-steady-state target cleavage rate” value turned out to be 0.000726 ± 0.0082.

As for CUUAACCUCUGGAUCUCACUGGGUUACCUAA, the “pre-steady-state target cleavage rate” value came to 0.00136 ± 0.0066.

Consider CUUAAGGAGACGUUCUACUGGGUUACCAAA, for which the “pre-steady-state target cleavage rate” value came out at 0.000244 ± 0.02.

Take CUUAAGGAGACCUUCUUCUGGCUUACCUAA: the “pre-steady-state target cleavage rate” value was 0.000849 ± 0.0082.

Consider CUUAAGGAGACGAUUCUACUGGGUUACCUAA, for which the “pre-steady-state target cleavage rate” value worked out at 0.00227 ± 0.0047.

Take CUAUUCCUCUCGAUCUACUGCGUUACCUAA: the “pre-steady-state target cleavage rate” value was 0.948 ± 0.092.

Turning to CAAUUCCUCUGGAUCUACAUGGGUUACCUAA, the “pre-steady-state target cleavage rate” value was 0.00364 ± 0.0048.

For CUUUUCCUCUGGAUCUACUAGGGUUACCUAA, the “pre-steady-state target cleavage rate” value came out at 0.00312 ± 0.0049.

As to CUUAAGGAGACCAUCUACUGGGUAUCCUAA, the “pre-steady-state target cleavage rate” value came out at 0.000683 ± 0.0096.

For CUAUUCCUCUGGAUCAUGUGGGUUACCUAA, the “pre-steady-state target cleavage rate” value came to 0.00031 ± 0.024.

In the case of CUUAAGGAGAGCAUGUACUGGGUUACCUAA, the “pre-steady-state target cleavage rate” value was 0.000236 ± 0.018.

As to CUUAAGGACUCGAUCUACUGGGUUACCAAA, the “pre-steady-state target cleavage rate” value was determined as 0.00457 ± 0.0065.

Take CUUAAGGAGACCAUCUACUGCGUUACCAAA: the “pre-steady-state target cleavage rate” value was 0.00125 ± 0.0045.

Turning to CUUAAGGAGAGCAUCUUCUGGGUUACCUAA, the “pre-steady-state target cleavage rate” value amounted to 0.00182 ± 0.0039.

For the sequence CUUAAGGUCAGGAUCUAGUGGGUUACCUAA, the “pre-steady-state target cleavage rate” value came out at 0.00439 ± 0.0054.

Turning to CUUAAGGAGACGUCUACUGGGUUACCUAA, the “pre-steady-state target cleavage rate” value worked out at 0.000613 ± 0.012.

As to CAAUUCCUCUGGAUCUACGUGGGUUACCUAA, the “pre-steady-state target cleavage rate” value is 0.00281 ± 0.0049.

As for CAAUUCCUCUGGAUCUACUGGGUUACCAAA, the “pre-steady-state target cleavage rate” value was determined as 0.509 ± 0.068.

Turning to CUUAAGGAGACCUAGAUCUGGGUUACCAA, the “pre-steady-state target cleavage rate” value is 0.000483 ± 0.01.

Regarding CUUAAGGAGACCUAGAAGUGGCUUACCUAA, the “pre-steady-state target cleavage rate” value was determined as 0.000252 ± 0.014.

Turning to CUUAAGGAGACCUAGAUCUGGGUAAGCUAA, the “pre-steady-state target cleavage rate” value worked out at 0.000182 ± 0.042.

In the case of CUUAAGGAGUGGAUACUACUGGGUUACCUAA, the “pre-steady-state target cleavage rate” value stood at 0.00496 ± 0.0052.

Take CUUAAGGUCUGGAUCUACUCGGUUACCUAA: the “pre-steady-state target cleavage rate” value was 0.0416 ± 0.02.

In the case of CUUAACCUCUGGAUCUACUCGGGUUACCUAA, the “pre-steady-state target cleavage rate” value amounted to 0.00194 ± 0.006.

As for CUUAAGGAGACCAUCUACUGGGUAUGCUAA, the “pre-steady-state target cleavage rate” value amounted to 0.000306 ± 0.021.

For CUUAAGGAGACCUACUACUUGGUUACCUAA, the “pre-steady-state target cleavage rate” value stood at 0.000718 ± 0.006.

Regarding CUUAAGGAGACCUUCUACUGGGUUAUCUAA, the “pre-steady-state target cleavage rate” value stood at 0.00164 ± 0.0085.

For the sequence CUUAAGGAGACGCUCUACUGGGUUACCUAA, the “pre-steady-state target cleavage rate” value was 0.00372 ± 0.0038.

As to CUUAAGGAGAGGAUCUUCUGGGUUACCAAA, the “pre-steady-state target cleavage rate” value was 0.000238 ± 0.02.

As for CUUAAGGAGACCAUCUAGUGGGUUACCUAA, the “pre-steady-state target cleavage rate” value came out at 0.00148 ± 0.0062.

For the sequence CUUAAGGAGACCUAGAUGAGGGUUCCUAA, the “pre-steady-state target cleavage rate” value was 0.00122 ± 0.0085.

In the case of CUUAAGGAGUCGAUCUACAGGGUUACCUAA, the “pre-steady-state target cleavage rate” value turned out to be 0.000661 ± 0.015.

With “GAAUUCCUCUGGAUCUACUGGGAAUGGAUA [g9:g30:cont:t1A]”, the “pre-steady-state target cleavage rate” value was 0.00231 ± 0.0055.

In the case of CUUAAGGACUCGAUCAACUGGGUUACCUAA, the “pre-steady-state target cleavage rate” value was determined as 0.0026 ± 0.0094.

Turning to “CUUAACCUCUGGAUCUACUGGGAAUGGAUA [g9:g25:cont:t1A]”, the “pre-steady-state target cleavage rate” value came out at 0.000133 ± 0.049.

As for CUUUUCCUCUGGAUCUACUGUGGUUACCUAA, the “pre-steady-state target cleavage rate” value was found to be 0.00172 ± 0.0046.

Turning to CUUAAGGAGACCUUCUACUCGGUAACCUAA, the “pre-steady-state target cleavage rate” value was 0.000225 ± 0.047.

“CUUAAGGUCUGGAUCUACUGGGUUAGGAUA [g6:g23:cont:t1A]”: the “pre-steady-state target cleavage rate” value amounted to 0.00119 ± 0.019.

As to CUUAAGGAGACCUAAUACUGGGUUACCUAA, the “pre-steady-state target cleavage rate” value is 0.00183 ± 0.005.

In the case of CUUAAGGAGACCUAGUACUGGGUUACCUCA, the “pre-steady-state target cleavage rate” value was found to be 0.000957 ± 0.0079.

On to CUUAAGGUCUGGAUCUACUGGGUUAGGAAA, for which the “pre-steady-state target cleavage rate” value was determined as 0.00262 ± 0.0079.

Consider CUUAUCCUCUGGAUCUCUGGGUUACCUAA, for which the “pre-steady-state target cleavage rate” value was found to be 0.00296 ± 0.0047.
